Measurements as given in PubChem BioAssay AID330 (DTP/NCI, 2004).
The list is a part of this screen's results and no random one: it is rich in T/C values a quarter to a half above the control, in often repeated tests (any T/C) and in doses without a T/C. Other doses and runs of a compound stand elsewhere. T/C: endpoint of the treated group in % of that of the vehicle group. Some doses have a count of surviving animals in place of a T/C: the source files T/C as zero there, which appears to mark a toxic dose or a test without result, not a measured value. Some survivor counts are full or nearly so, which does not show that the dose was tolerated: survival well below the control is almost never listed, so the zero probably covers shortened survival too. Counts of survivors are from the toxicity check (mostly the fifth day) where no day follows; animals may have died later. Schedules are NCI's codes, taken here to give the interval after Q, in days (D) or hours (H), and the number of doses after X. Some entries hold several experiments; their values stand side by side, smallest first. Where survival is the endpoint, the PubChem record calls one and a half times the control and up active, and a quarter to a half above the control has no call in these data; cut-offs in other NCI protocols can differ. Marks such as (2×) say how often a value occurs here. Some T/C values carry the count of animals alive at the toxicity check (mostly the fifth day); where none is given, no animal had died by that day.

System: P388 leukemia ip, CD2F1 mice, survival T/C
Test: NCI In Vivo Anticancer Drug Screen. Data for tumor model P388 Leukemia (intraperitoneal) in CD2F1 (CDF1) mice
Details: T/C endpoint: median survival time, higher T/C = longer survival
[1] = dose: 200.0 mg/kg/injection, schedule: Q01DX005 (ip), vehicle: saline with Tween-80
[2] = dose: 25.0 mg/kg/injection, schedule: Q01DX009 (ip), vehicle: Klucel (hydroxypropylcellulose) (HPC)
[3] = dose: 50.0 mg/kg/injection, schedule: Q01DX009 (ip), vehicle: Klucel (hydroxypropylcellulose) (HPC)
[4] = dose: 100.0 mg/kg/injection, schedule: Q01DX009 (ip), vehicle: Klucel (hydroxypropylcellulose) (HPC)
[5] = dose: 200.0 mg/kg/injection, schedule: Q01DX005 (ip), vehicle: saline
[6] = dose: 60.0 mg/kg/injection, schedule: Q01DX005 (ip), vehicle: saline with Tween-80
[7] = dose: 200.0 mg/kg/injection, schedule: Q01DX009 (ip), vehicle: saline with Tween-80
[8] = dose: 200.0 mg/kg/injection, schedule: Q01DX009 (ip), vehicle: Klucel (hydroxypropylcellulose) (HPC)
[9] = dose: 400.0 mg/kg/injection, schedule: Q01DX009 (ip), vehicle: Klucel (hydroxypropylcellulose) (HPC)
[10] = dose: 0.13 mg/kg/injection, schedule: Q01DX009 (ip), vehicle: Klucel (hydroxypropylcellulose) (HPC)
[11] = dose: 0.25 mg/kg/injection, schedule: Q01DX009 (ip), vehicle: Klucel (hydroxypropylcellulose) (HPC)

[Cl][Mn][Cl] was tested, and the survivor count (dose: 1.0 mg/kg/injection, schedule: Q01DX009 (ip), vehicle: saline) was 5 of 6, the survivor count (dose: 4.0 mg/kg/injection, schedule: Q01DX009 (ip), vehicle: saline) was 5 of 6 and 6 of 6 and the survivor count (dose: 8.0 mg/kg/injection, schedule: Q01DX009 (ip), vehicle: saline) was 6 of 6. For the same compound, the survivor count (dose: 16.0 mg/kg/injection, schedule: Q01DX009 (ip), vehicle: saline) was 6 of 6, the survivor count (dose: 32.0 mg/kg/injection, schedule: Q01DX009 (ip), vehicle: saline) was 5 of 6 and 6 of 6 and the survivor count (dose: 128.0 mg/kg/injection, schedule: Q01DX009 (ip), vehicle: saline) was 1 of 6. For the same compound, the survivor count (dose: 128.0 mg/kg/injection, schedule: Q01DX009 (ip), vehicle: suspension in saline) was 0 of 6 and the survivor count (dose: 256.0 mg/kg/injection, schedule: Q01DX009 (ip), vehicle: suspension in saline) was 0 of 6.

For Cc1cc(N)cc(N)c1O, the survivor count (dose: 12.5 mg/kg/injection, schedule: Q01DX009 (ip), vehicle: saline) was 0 of 6, the survivor count (dose: 25.0 mg/kg/injection, schedule: Q01DX009 (ip), vehicle: saline) was 0 of 6 and the survivor count (dose: 50.0 mg/kg/injection, schedule: Q01DX009 (ip), vehicle: saline) was 0 of 6. For the same compound, the survivor count (dose: 100.0 mg/kg/injection, schedule: Q01DX009 (ip), vehicle: saline) was 0 of 6, the survivor count (dose: 200.0 mg/kg/injection, schedule: Q01DX009 (ip), vehicle: saline) was 0 of 6 and the survivor count (dose: 400.0 mg/kg/injection, schedule: Q01DX009 (ip), vehicle: saline) was 0 of 6. For the same compound, the survivor count (dose: 600.0 mg/kg/injection, schedule: Q01DX009 (ip), vehicle: saline) was 0 of 6.

Cc1ccccc1-n1c(=S)n(-c2ccccn2)c2nc3ccccc3nc1/c2=N/Nc1ccccn1 was tested, and the survivor count [1] was 3 of 6.

For O=C(CCl)NNC(=O)CCl, the survivor count (dose: 6.25 mg/kg/injection, schedule: Q01DX009 (ip), vehicle: Klucel (hydroxypropylcellulose) (HPC)) was 0 of 6, the T/C (dose: 12.5 mg/kg/injection, schedule: Q01DX009 (ip), vehicle: Klucel (hydroxypropylcellulose) (HPC)) was 127 % of control and the T/C [2] was 127 % of control [5 of 6 alive]. For the same compound, the survivor count [2] was 0 of 6, the survivor count [3] was 0 of 6 and the survivor count [4] was 0 of 6.

With CN(C)c1nc(N(C)C)oc(=[N+](C)C)n1 the survivor count (dose: 50.0 mg/kg/injection, schedule: Q01DX005 (ip), vehicle: saline) was 0 of 6, the survivor count (dose: 100.0 mg/kg/injection, schedule: Q01DX005 (ip), vehicle: saline) was 0 of 6 and the survivor count [5] was 0 of 6.

COc1cccc(/C=N/NC(=O)CNC(=O)Nc2cccc([N+](=O)[O-])c2)c1OC was tested, and the survivor count [6] was 5 of 6.

In the case of CC(C)(C)C(=O)CC(=O)C(C)(C)C.[Cu], the survivor count (dose: 400.0 mg/kg/injection, schedule: Q04DX003 (ip), vehicle: saline with Tween-80) is reported as 1 of 6.

In the case of CC1(C)N=C(N)N=C(N)N1c1cccc(CCCCc2ccccc2)c1, the survivor count (dose: 12.5 mg/kg/injection, schedule: Q01DX009 (ip), vehicle: saline sonified) is reported as 1 of 6, the survivor count (dose: 25.0 mg/kg/injection, schedule: Q01DX009 (ip), vehicle: saline sonified) is reported as 0 of 6 and the survivor count (dose: 25.0 mg/kg/injection, schedule: Q04DX003 (ip), vehicle: saline sonified) is reported as 4 of 6. For the same compound, the survivor count (dose: 50.0 mg/kg/injection, schedule: Q01DX009 (ip), vehicle: saline sonified) was 1 of 6 and the survivor count (dose: 100.0 mg/kg/injection, schedule: Q04DX003 (ip), vehicle: saline sonified) was 2 of 6.

With Cc1ccc2c(c1)C(=Nc1ccc(Cl)cc1)C(=O)N2 the survivor count (dose: 3.75 mg/kg/injection, schedule: Q01DX005 (ip), vehicle: saline with Tween-80) was 6 of 6, the survivor count (dose: 7.5 mg/kg/injection, schedule: Q01DX005 (ip), vehicle: saline with Tween-80) was 6 of 6 and the survivor count (dose: 15.0 mg/kg/injection, schedule: Q01DX005 (ip), vehicle: saline with Tween-80) was 6 of 6. For the same compound, the survivor count (dose: 30.0 mg/kg/injection, schedule: Q01DX005 (ip), vehicle: saline with Tween-80) was 6 of 6 and the survivor count [6] was 6 of 6.

With Cc1ccc(C)c(S(=O)(=O)Nc2c([N+](=O)[O-])cc([N+](=O)[O-])c3ccccc23)c1 the survivor count (dose: 200.0 mg/kg/injection, schedule: Q04DX002 (ip), vehicle: saline with Tween-80) was 1 of 6.

In the case of COC(=O)C1CCC[P+]1(C)C (stereo not given), the survivor count (dose: 200.0 mg/kg/injection, schedule: Q01DX001 (ip), vehicle: saline) is reported as 6 of 6.

For Cn1cc(NC(=O)c2cc(NC(=O)c3cc(NC=O)cn3C)cn2C)cc1C(=O)NCCC(=N)N, the survivor count (dose: 240.0 mg/kg/injection, schedule: Q01DX005 (ip), vehicle: water) was 0 of 6.

O=[N+]([O-])c1ccc(CN2CCC(C(=S)Nc3ccccc3)=C2c2ccccc2)cc1 was tested, and the survivor count (dose: 50.0 mg/kg/injection, schedule: Q01DX005 (ip), vehicle: Klucel (hydroxypropylcellulose) (HPC)) was 5 of 6.

With O=C1NC(c2cccc3c2OCO3)N=C2Oc3ccccc3C=C12 (stereo not given) the T/C [7] was 136 % of control.

For O=S(=O)(Cl)CCCCS(=O)(=O)Cl, the survivor count [4] was 5 of 6 and the survivor count [8] was 0 of 6.

For Cc1cnc2cc(Cl)ccc2c1NCCNCCO, the survivor count [5] was 0 of 5.

With CNCc1c(O)ccc2c(-c3ccccc3)cc(=O)oc12 the survivor count (dose: 400.0 mg/kg/injection, schedule: Q04DX002 (ip), vehicle: saline with Tween-80) was 2 of 6.

CC(C)c1ccc(O)c(O)c1 was tested, and the survivor count [7] was 1 of 6.

In the case of CCOC(=O)C(Cc1ccc(N(CCCl)CCCl)cc1)NC(=O)C(CC(C)C)NC(C)=O (stereo not given), the survivor count [4] is reported as 4 of 6, the survivor count (dose: 160.0 mg/kg/injection, schedule: Q04DX003 (ip), vehicle: other) is reported as 3 of 6 and the survivor count [8] is reported as 4 of 6. The survivor count [9] was 2 of 6.

For C/C(=N\NC(=S)N1CCC(C2CCN(C(=S)N/N=C(\C)c3ccccn3)CC2)CC1)c1ccccn1, the T/C [1] was 126 % of control.

For COc1c(Cl)cc2c(c1OC)N(C)C1N3C(=O)C4(C)SSC3(C(=O)N4C)C(O)C21O (stereo not given), the survivor count (dose: 0.06 mg/kg/injection, schedule: Q01DX009 (ip), vehicle: Klucel (hydroxypropylcellulose) (HPC)) was 6 of 6, the T/C [10] was 131 % of control and the survivor count [10] was 3 of 6. The T/C [11] was 126 % of control, the survivor count [11] was 0 of 6 and 5 of 6 and the survivor count (dose: 1.0 mg/kg/injection, schedule: Q01DX009 (ip), vehicle: Klucel (hydroxypropylcellulose) (HPC)) was 5 of 6.

CC(N)C(=O)OCN1C(=O)C2C3C=CC(C2C1=O)C1C2C(=O)N(COC(=O)C(C)N)C(=O)C2C31 (stereo not given) was tested, and the T/C (dose: 50.0 mg/kg/injection, schedule: Q01DX009 (ip), vehicle: water) was 127 % of control and the survivor count (dose: 200.0 mg/kg/injection, schedule: Q01DX009 (ip), vehicle: water) was 1 of 6.

For CCC(=O)N(C)C(C)C(=O)OC1CC(=O)N(C)c2cc(cc(OC)c2Cl)CC2(C)OC2/C=C/C(OC)C2(O)CC(OC(=O)N2)C(C)C2OC12C (stereo not given), the T/C (dose: 200.0 micrograms/kg/injection, schedule: Q01DX009 (ip), vehicle: saline + alcohol) was 133 % of control (2×) and the T/C (dose: 400.0 micrograms/kg/injection, schedule: Q01DX009 (ip), vehicle: saline + alcohol) was 135 and 140 % of control.

In the case of CC1(C)CC(=O)C2OC21 (stereo not given), the survivor count (dose: 200.0 mg/kg/injection, schedule: Q04DX002 (ip), vehicle: saline) is reported as 6 of 6.

O=S1(=O)C=C(Cl)C1 was tested, and the survivor count [1] was 0 of 6.

In the case of O=[N+]([O-])c1ccc2c(c1)Cc1cc(N(CCCl)CCCl)ccc1-2, the survivor count [3] is reported as 6 of 6, the survivor count [4] is reported as 6 of 6 and the survivor count [8] is reported as 6 of 6. The survivor count [9] was 6 of 6.

CCCCCCCCCCCCOC(=O)c1ccc(Br)cc1 was tested, and the survivor count [3] was 6 of 6.

In the case of CCCC/C(=N\NC(N)=NC)c1ccccc1, the survivor count (dose: 100.0 mg/kg/injection, schedule: Q04DX002 (ip), vehicle: saline with Tween-80) is reported as 2 of 6.
